The results in this text go back to publication PMC9855889.

Sequences of proteins named here, by UniProt entry; tags and fusion partners are left off.
UniProt P10591: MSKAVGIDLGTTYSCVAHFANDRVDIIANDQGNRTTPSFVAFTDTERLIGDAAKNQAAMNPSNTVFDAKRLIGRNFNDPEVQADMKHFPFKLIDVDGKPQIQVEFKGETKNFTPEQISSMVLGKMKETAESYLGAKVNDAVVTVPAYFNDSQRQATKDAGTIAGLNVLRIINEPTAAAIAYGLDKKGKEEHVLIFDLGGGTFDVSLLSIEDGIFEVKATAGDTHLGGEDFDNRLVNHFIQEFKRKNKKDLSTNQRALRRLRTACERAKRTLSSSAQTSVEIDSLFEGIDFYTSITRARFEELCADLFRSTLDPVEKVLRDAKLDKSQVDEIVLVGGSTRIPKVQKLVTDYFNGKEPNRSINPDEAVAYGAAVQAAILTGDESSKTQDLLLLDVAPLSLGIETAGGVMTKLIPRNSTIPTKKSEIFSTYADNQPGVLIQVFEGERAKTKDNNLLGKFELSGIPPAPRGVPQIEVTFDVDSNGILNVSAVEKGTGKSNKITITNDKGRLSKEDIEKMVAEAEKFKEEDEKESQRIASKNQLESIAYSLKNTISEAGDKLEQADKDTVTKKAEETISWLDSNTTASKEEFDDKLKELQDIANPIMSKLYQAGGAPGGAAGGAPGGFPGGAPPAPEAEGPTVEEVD
UniProt P53114: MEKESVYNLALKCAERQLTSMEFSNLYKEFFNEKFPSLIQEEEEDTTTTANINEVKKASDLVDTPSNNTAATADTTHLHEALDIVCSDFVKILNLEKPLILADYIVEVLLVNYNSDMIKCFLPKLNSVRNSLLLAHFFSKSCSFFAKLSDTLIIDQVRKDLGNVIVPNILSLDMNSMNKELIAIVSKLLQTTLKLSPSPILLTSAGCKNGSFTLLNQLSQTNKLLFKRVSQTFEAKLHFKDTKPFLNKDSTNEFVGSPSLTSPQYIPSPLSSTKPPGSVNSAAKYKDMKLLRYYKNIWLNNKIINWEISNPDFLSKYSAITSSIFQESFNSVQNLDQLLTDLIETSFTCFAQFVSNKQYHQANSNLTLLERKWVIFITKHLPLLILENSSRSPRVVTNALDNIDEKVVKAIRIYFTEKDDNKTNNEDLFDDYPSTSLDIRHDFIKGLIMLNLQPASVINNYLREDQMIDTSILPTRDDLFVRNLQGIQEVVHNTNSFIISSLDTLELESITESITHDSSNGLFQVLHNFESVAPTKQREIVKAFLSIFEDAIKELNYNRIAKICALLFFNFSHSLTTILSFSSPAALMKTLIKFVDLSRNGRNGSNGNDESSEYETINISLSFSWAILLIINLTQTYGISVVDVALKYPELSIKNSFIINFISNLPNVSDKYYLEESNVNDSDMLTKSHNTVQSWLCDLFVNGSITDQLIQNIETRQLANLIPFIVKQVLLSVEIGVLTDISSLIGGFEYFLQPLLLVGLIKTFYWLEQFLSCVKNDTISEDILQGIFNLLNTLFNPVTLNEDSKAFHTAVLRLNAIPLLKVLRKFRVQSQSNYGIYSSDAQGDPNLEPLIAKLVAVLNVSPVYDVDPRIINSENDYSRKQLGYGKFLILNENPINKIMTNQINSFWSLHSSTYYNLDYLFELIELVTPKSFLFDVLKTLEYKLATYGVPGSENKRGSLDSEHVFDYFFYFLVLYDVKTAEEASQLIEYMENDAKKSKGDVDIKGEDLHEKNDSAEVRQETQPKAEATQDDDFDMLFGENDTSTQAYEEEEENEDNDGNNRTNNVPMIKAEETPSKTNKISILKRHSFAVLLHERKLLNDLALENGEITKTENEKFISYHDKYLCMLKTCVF

The assay addresses T1, α4/Pre6-FH (S. cerevisiae) (UniProt P40303).
T1 sequence: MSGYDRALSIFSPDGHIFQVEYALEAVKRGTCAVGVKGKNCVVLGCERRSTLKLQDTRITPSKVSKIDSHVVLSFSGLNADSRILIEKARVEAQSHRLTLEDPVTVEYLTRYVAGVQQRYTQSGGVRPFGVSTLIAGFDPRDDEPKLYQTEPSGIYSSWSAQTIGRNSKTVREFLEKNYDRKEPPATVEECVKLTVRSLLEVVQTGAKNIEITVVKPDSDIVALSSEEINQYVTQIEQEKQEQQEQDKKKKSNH
The assay is described as follows: affinity purification with mass spectrometry; α4-FH captured from yeast extract on anti-FLAG resin in FLAG buffer (50 mM Tris-HCl, 150 mM NaCl, pH 7.4), 4 °C, eluted with FLAG peptide; Superdex200 in 26S buffer; silver-stained bands of fraction 25 analysed by LC-MS.

These are yes or no findings as the source states them, for the method shown. Binding seen in cells or lysates may run through a third protein. Here binding means that the protein was enriched with, or labelled near, the bait; the list need not be complete. No binding means not detected with the bait.

In the case of Ssa1 (from UniProt P10591 1-642), the binding entry is reported as “binds”.

Consider “Nut1, negative regulator of Urs2 of the HO promoter (from UniProt P53114 1-1132)”, for which the binding result is “no binding”.

Consider “Tdh, glyceraldehyde-3-phosphate dehydrogenase”, for which the binding result is given as “no binding”.

B1: Rga1 (RhoGAP for Cdc42) (protein, UniProt P39083 1-1007)
chain: MASTAPNEQFPSCVRCKEFITTGHAYELGCDRWHTHCFACYKCEKPLSCESDFLVLGTGALICFDCSDSCKNCGKKIDDLAIILSSSNEAYCSDCFKCCKCGENIADLRYAKTKRGLFCLSCHEKLLAKRKYYEEKKRRLKKNLPSLPTPVIDNGHTDEVSASAVLPEKTFSRPASLVNEIPSGSEPSKDIETNSSDIVPHFITGYNDSDDNSGSSKFGSNVSIDVIGPEENSTEHVNDDVKEEAEAPSANMSLNVATDPTLSCKEPPSHSRNLLNKTPLRNSSGQYLAKSPSSYRQGIIVNDSLEESDQIDPPNNSSRNASELLTSVLHSPVSVNMKNPKGSNTDIFNTGEISQMDPSLSRKVLNNIVEETNALQRPVVEVVKEDRSVPDLAGVQQEQAEKYSYSNNSGKGRKISRSLSRRSKDLMINLKSRATGKQDSNVKLSPASKVTSRRSQDLMRDNDSHTGLDTPNSNSTSLDILVNNQKSLNYKRFTDNGTLRVTSGKETALEEQKNHSFKSPSPIDHLLQSPATPSNVSMYRTPPLDSSLTFDRRNGSSYSNQNYSIPSWQKTPKTQLENSDNFEEQKETLYENSESRNDPSLDKEIVTAEHYLKQLKINLKELESQREELMKEITEMKSMKEALRRHIESYNSEKNKLYLDSNELSNNPPMINEISLGESPPVKHVATASSVARSSVKPKFWKFFSSAKPQTEQSIQGVSTNNTNSIVKSAPVLLSAPSSGSNSGRLEISPPVLQNPNEFSDVRLVPIENDANMGQSKDGEEYLDGSNLYGSSLVARCNYENNEIPMILSVCIDFIESDEENMRSEGIYRKSGSQLVIEEIEKQFSAWKVQQNTETPNILTEQDLNVVTGVLKRYLRKLPNPIFTFQIYEPLMRLVKSKKMMENLPFVGGKLSLEAKNSDTYMSSKSALKNILEDLPREHYRVLRVLSEHIEKVTRYSHWNRMTLYNLALVFAPGLIRDFSGEKDIIDMKERNYIVAFIFGNYKDILT
Take B1: the binding result is given as “no binding”.

B2: Sse2 (protein, UniProt P32590 1-693)
chain: MSTPFGLDLGNNNSVLAVARNRGIDVVVNEVSNRSTPSLVGFGPRNRYLGESGKTKQTSNVKNTVENLKRIIGLKFKDPEFDIENKFFTSKLVQLKNGKVGVEVEFGGKTHVFSATQLTAMFIDKVKHTVQEETKSSITDVCLAVPVWYSEEQRYNIADAARIAGLNPVRIVNDVTAAAVSYGVFKNDLPGPEEKPRIIGLVDIGHSTYTCSIMAFRKGEMKVLGTAYDKHFGGRDFDRAITEHFADQFKDKYKIDIRKNPKAYNRILIAAEKLKKVLSANTTAPFSVESVMDDIDVSSQLSREELEELVEPLLKRVTYPITNALAQAKLTVNDIDFVEIIGGTTRIPVLKKSISDVFGKPLSSTLNQDEAVAKGAAFICAIHSPTLRVRPFKFEDIDPYSVSYTWDKQVDDEDRLEVFPANSSYPSTKLITLHRTGDFSMKAVYTHPSKLPKGTSTTIAKWSFTGVKVPKDQDFIPVKVKLRCDPSGLHIIENAYTTEDITVQEPVPLPEDAPEDAEPQFKEVTKTIKKDVLGMTAKTFALNPVELNDLIEKENELRNQDKLVAETEDRKNALEEYIYTLRAKLDDEYSDFASDAEKEKLKNMLATTENWLYGDGDDSTKAKYIAKYEELASLGNIIRGRYLAKEEEKRQALRANQETSKMNDIAEKLAEQRRARAASDDSDDNNDENMDLD
As to B2, the binding entry was “binds”.
